Experiment [1] deals with T1, Tumor necrosis factor alpha induced protein 1 (TNFAIP1), endogenous (human (endogenous in HepG2)) (UniProt Q13829).
T1 sequence: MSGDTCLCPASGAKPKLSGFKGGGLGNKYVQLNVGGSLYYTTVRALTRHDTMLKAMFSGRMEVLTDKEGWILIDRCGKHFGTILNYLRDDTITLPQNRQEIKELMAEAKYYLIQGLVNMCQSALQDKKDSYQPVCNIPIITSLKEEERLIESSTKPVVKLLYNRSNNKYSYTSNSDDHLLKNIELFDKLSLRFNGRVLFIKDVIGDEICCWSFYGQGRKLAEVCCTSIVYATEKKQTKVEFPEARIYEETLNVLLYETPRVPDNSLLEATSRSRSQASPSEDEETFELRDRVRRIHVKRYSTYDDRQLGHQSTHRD
The experiment is described as follows: co-IP; endogenous proteins; HepG2 cells treated with MG132 (5 uM) for 6 h; lysate incubated with anti-TNFAIP1 antibody overnight at 4°C, protein A/G; immunoblot. On the technique in general: Immunoblotting shows a protein as a band on a membrane.

Chains of the proteins cited; added tags and fusions are not shown.
UniProt P62745: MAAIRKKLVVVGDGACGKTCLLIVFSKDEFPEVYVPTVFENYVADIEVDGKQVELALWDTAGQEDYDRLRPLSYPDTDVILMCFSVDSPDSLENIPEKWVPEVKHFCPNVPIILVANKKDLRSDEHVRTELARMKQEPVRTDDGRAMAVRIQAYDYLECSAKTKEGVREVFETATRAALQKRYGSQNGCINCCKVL

Experiment [2] concerns the target RhoB (endogenous) (human (endogenous in HepG2)) (UniProt P62745). The experiment is described as follows: co-IP; endogenous proteins; HepG2 cells treated with MG132 (5 uM) for 6 h; lysate incubated with anti-RhoB antibody overnight at 4°C, protein A/G; immunoblot.
The next experiment concerns the target Flag-RhoB (human) (UniProt P62745). As to the kind of experiment: co-IP; HEK293T cells transfected with Flag-RhoB and HA-TNFAIP1, MG132 for 6 h; lysate incubated with anti-Flag M2 beads overnight at 4°C; immunoblot.

Results are given in words; binding and its absence hold for the method and conditions named. In cells and extracts the contact can be indirect. Some entries that bind do so weakly or less than the wild type. For part of these data: Tags and fused reporters may be left off the sequences shown.

Consider “RhoB (endogenous) (from UniProt P62745 1-196)”, for which the binding entry in experiment [1] is “binds”.

B1: Tumor necrosis factor alpha induced protein 1 (TNFAIP1), endogenous (protein, UniProt Q13829 1-316)
chain: T1 sequence
In the case of B1, the binding result in experiment [2] is recorded as “binds”.

B2: HA-TNFAIP1 (protein, UniProt Q13829 1-316)
chain: T1 sequence
Regarding B2, the binding entry with Flag-RhoB (human) is on record as “binds”.

The record behind these values is paper PMC7859282.
